According to patent US20080089956A1, “NITRIC OXIDE IN TREATMENT OF INFLAMMATION” (AGA AB, priority 2003, published 2008):
For at least one compound, name, drawing or mass did not settle the structure.

Test system: NF-κB
Test: Expression of NF-κB, immunohistochemical staining of tissue from endotoxin-exposed piglets
Assay type: in vivo, piglets of Swedish country breed
Design: key to the marks not given beside the values
Conditions: LPS infusion 6 h, treatment from 2.5 h (INO 30 ppm; hydrocortisone 3.5 mg/kg i.v.)
Description: Anesthesia, surgery preparation and catheterizations were followed by 30 min of rest. Baseline measurements were then made. The pigs were followed for another 6 hours to establish control data over the whole study period. The pigs were killed after the last measurement with an intra-venous injection of KCl; and tissue samples were taken from the lung, liver and kidney for morphological and biochemical studies.
Anesthesia, surgery and catheterizations were similar to the controls. After baseline measurements, acute lung injury and septic shock was induced by intravenous infusion of LPS 25 μg/kg/h in saline for 2.5 h, followed by 10 μg/kg/h for the remainder of the study. […]
The antibodies were detected with the peroxidase-anti-peroxidase method using 3-amino-9-ethyl-carbazole (AEC, SIGMA Catalogue No. A-6926 Germany) as chromogen. […]
An image-analysis system consisting of a 12-bit cooled charge-coupled device camera (Sensys KAF 1400, Photometrics, Tucson, AZ) mounted on a fully automated Leica (Wetzlar, Germany) DM RXA microscope was used to digitize grey-scale images to a dual-Pentium 200 MHz host computer. […] The optimal central wavelength was determined by measurement of the substrate in a Leica MPV SP microscope photometer system (courtesy of Leica).

## C[C@]12CCC(=O)C=C1CC[C@@H]1[C@@H]2[C@@H](O)C[C@@]2(C)[C@H]1CC[C@]2(O)C(=O)CO [LPS + S, hydrocortisone]
Kidney
  Expression of NF-κB (results of immunohistochemical staining): +++
Lung
  Expression of NF-κB (results of immunohistochemical staining): +++
